Laboratory results: PubChem BioAssay AID330 (DTP/NCI, 2004)
The list is a part of this screen's results and no random one: it gathers tests that were run many times, whatever their T/C, doses with no T/C, and many T/C values between a quarter and a half above the control. Other doses and runs of a compound stand elsewhere. T/C gives the treated animals as a percentage of the vehicle group. Some doses have a count of surviving animals in place of a T/C: the source files T/C as zero there, which appears to mark a toxic dose or a test without result, not a measured value. Some doses without a T/C left all or most animals alive at the check, yet need not have been tolerated: the source hardly ever lists a survival T/C far under the control, and the zero likely stands for such cases as well. Counts of survivors are from the toxicity check (mostly the fifth day) where no day follows; animals may have died later. Schedules are NCI's codes, read here as Q, the interval in days (D) or hours (H), X, the number of doses. Where survival is the endpoint, this PubChem deposit counts one and a half times the control or more as active, and values a quarter to a half above the control carry no call in these data; other NCI protocols may use other cut-offs. Some doses were run more than once; the results are listed from low to high. Signs of the kind (2×) count equal records among those shown.

Test system: P388 leukemia ip, CD2F1 mice, survival T/C
Assay: NCI In Vivo Anticancer Drug Screen. Data for tumor model P388 Leukemia (intraperitoneal) in CD2F1 (CDF1) mice
Conditions: T/C endpoint: median survival time, higher T/C = longer survival

N[C@@H](Cc1ccc(N(CCCl)CCCl)cc1)C(=O)O was tested. Which T/C (dose: 0.06 mg/kg/injection, schedule: Q01DX009 (ip), vehicle: saline) did it give?
Its T/C is 133 % of control.

What about the T/C (dose: 0.13 mg/kg/injection, schedule: Q01DX009 (ip), vehicle: saline) of the same molecule?
The T/C was 139 % of control.

What about the T/C (dose: 0.25 mg/kg/injection, schedule: Q01DX009 (ip), vehicle: suspension in saline) of the same molecule?
Its T/C is 126 % of control.

And the T/C (dose: 0.5 mg/kg/injection, schedule: Q01DX005 (ip), vehicle: saline)?
Its T/C is 126 % of control.

And the T/C (dose: 0.5 mg/kg/injection, schedule: Q01DX009 (ip), vehicle: suspension in saline)?
The T/C was 138 % of control.

And the T/C (dose: 0.5 mg/kg/injection, schedule: Q01DX009 (ip), vehicle: water)?
Its T/C is 146, 149, 182, 188, 206 % of control.

What about the T/C (dose: 0.5 mg/kg/injection, schedule: Q04DX003 (ip), vehicle: saline) of the same molecule?
The T/C was 134 % of control.

And the T/C (dose: 0.75 mg/kg/injection, schedule: Q01DX009 (ip), vehicle: Klucel (hydroxypropylcellulose) (HPC))?
Its T/C is 137 % of control.

What about the T/C (dose: 1.0 mg/kg/injection, schedule: Q01DX005 (ip), vehicle: saline, evaluated on day 20) of the same molecule?
Its T/C is 191 % of control.

What about the T/C (dose: 1.0 mg/kg/injection, schedule: Q01DX005 (ip), vehicle: saline, evaluated on day 30) of the same molecule?
Its T/C is 180 and 187 % of control.

And the T/C (dose: 1.0 mg/kg/injection, schedule: Q01DX005 (ip), vehicle: saline, evaluated on day 45)?
The T/C was 156 % of control.

What about the T/C (dose: 1.0 mg/kg/injection, schedule: Q01DX009 (ip), vehicle: suspension in saline) of the same molecule?
Its T/C is 137 % of control.

And the T/C (dose: 1.0 mg/kg/injection, schedule: Q01DX009 (ip), vehicle: water)?
The T/C was 168, 177, 198, 219, 234 % of control.

What about the T/C (dose: 1.0 mg/kg/injection, schedule: Q03HX008 (ip), vehicle: saline, evaluated on day 50) of the same molecule?
Its T/C is 180, 357, 454 % of control.

And the T/C (dose: 1.0 mg/kg/injection, schedule: Q03HX008 (ip), vehicle: saline, evaluated on day 60)?
Its T/C is 190 and 245 % of control.

And the T/C (dose: 1.0 mg/kg/injection, schedule: Q04DX003 (ip), vehicle: saline)?
Its T/C is 145 % of control.

What about the T/C (dose: 1.25 mg/kg/injection, schedule: Q04DX003 (ip), vehicle: water) of the same molecule?
Its T/C is 130 % of control.

And the T/C (dose: 2.0 mg/kg/injection, schedule: Q01DX001 (ip), vehicle: suspension in saline)?
The T/C was 144 % of control.

And the T/C (dose: 2.0 mg/kg/injection, schedule: Q01DX005 (ip), vehicle: saline, evaluated on day 20)?
Its T/C is 192 % of control.

And the T/C (dose: 2.0 mg/kg/injection, schedule: Q01DX005 (ip), vehicle: saline, evaluated on day 30)?
Its T/C is 189 and 232 % of control.

And the T/C (dose: 2.0 mg/kg/injection, schedule: Q01DX005 (ip), vehicle: saline, evaluated on day 45)?
The T/C was 197 % of control.

And the T/C (dose: 2.0 mg/kg/injection, schedule: Q01DX009 (ip), vehicle: suspension in saline)?
Its T/C is 142 % of control.

And the T/C (dose: 2.0 mg/kg/injection, schedule: Q01DX009 (ip), vehicle: water)?
Its T/C is 175, 201, 225, 254, 277 % of control.

And the T/C (dose: 2.0 mg/kg/injection, schedule: Q03HX008 (ip), vehicle: saline, evaluated on day 50)?
Its T/C is 357, 384, 454 % of control.

What about the T/C (dose: 2.0 mg/kg/injection, schedule: Q03HX008 (ip), vehicle: saline, evaluated on day 60) of the same molecule?
The T/C was 222 and 600 % of control.

And the T/C (dose: 2.5 mg/kg/injection, schedule: Q04DX003 (ip), vehicle: saline, evaluated on day 30)?
Its T/C is 202 and 216 % of control.

And the T/C (dose: 2.5 mg/kg/injection, schedule: Q04DX003 (ip), vehicle: saline, evaluated on day 45)?
The T/C was 177 and 197 % of control.

And the T/C (dose: 2.5 mg/kg/injection, schedule: Q04DX003 (ip), vehicle: saline, evaluated on day 50)?
Its T/C is 216 % of control.

And the T/C (dose: 2.5 mg/kg/injection, schedule: Q04DX003 (ip), vehicle: saline, evaluated on day 55)?
The T/C was 198 % of control.

What about the T/C (dose: 2.5 mg/kg/injection, schedule: Q04DX003 (ip), vehicle: water, evaluated on day 30) of the same molecule?
The T/C was 185, 199, 206, 210, 213, 227, 231, 236, 247, 252 % of control.

What about the T/C (dose: 2.5 mg/kg/injection, schedule: Q04DX003 (ip), vehicle: water, evaluated on day 35) of the same molecule?
Its T/C is 203 and 212 % of control.

And the T/C (dose: 2.5 mg/kg/injection, schedule: Q04DX003 (ip), vehicle: water, evaluated on day 40)?
Its T/C is 142, 183, 188, 205 (2×), 222, 260 % of control.

What about the T/C (dose: 2.5 mg/kg/injection, schedule: Q04DX003 (ip), vehicle: water, evaluated on day 45) of the same molecule?
The T/C was 216 % of control.

What about the T/C (dose: 2.5 mg/kg/injection, schedule: Q04DX003 (iv), vehicle: saline) of the same molecule?
Its T/C is 138 % of control.

And the survivor count (dose: 3.0 mg/kg/injection, schedule: Q01DX009 (ip), vehicle: Klucel (hydroxypropylcellulose) (HPC))?
The survivor count was 6 of 6.

What about the T/C (dose: 3.75 mg/kg/injection, schedule: Q04DX003 (ip), vehicle: water, evaluated on day 30) of the same molecule?
Its T/C is 178, 182, 185, 194, 197, 218, 221, 223, 226, 237, 241, 263 % of control.

What about the T/C (dose: 3.75 mg/kg/injection, schedule: Q04DX003 (ip), vehicle: water, evaluated on day 35) of the same molecule?
Its T/C is 109 and 225 % of control.

And the T/C (dose: 3.75 mg/kg/injection, schedule: Q04DX003 (ip), vehicle: water, evaluated on day 45)?
The T/C was 224 % of control.

What about the T/C (dose: 3.75 mg/kg/injection, schedule: Q04DX003 (ip), vehicle: water, evaluated on day 60) of the same molecule?
Its T/C is 161 % of control.
